PubChem BioAssay AID1508588 | Peter MacCallum Cancer Centre – 2020
Here is a random part of about 18,000 reagents. Of all reagents, 790 (4.4%) are marked active. 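Calls rest on a combination of fold-change classes in drug and vehicle arms, not all shown here.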 No sequences are given here.

Screen: 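Genome-wide search for knock-downs that heighten vemurafenib action in melanoma cells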 (primary screen)
Cell system: human WM266.4 melanoma cells (BRAF V600 mutant)
Reagents: siRNA pool against human genes, 40 nM
Duration: 96 h from transfection to read-out
Treatment: vemurafenib 300 nM (about IC25), added 48 h after transfection, for 48 h; comparison arm got DMSO vehicle only
Read-out: 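Ratios to non-targeting siRNA for cell gain, counted as DAPI nuclei after minus before drug and averaged over two replicates, and for absorbance-read medium lactate per cell; both binned into fold-change classes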
Direction: cell gain with vemurafenib: higher = more cell gain than with non-targeting siRNA; lactate per cell with vemurafenib: higher = more lactate made per cell
Rule for the call: 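Enhancement is called by pairing each knock-down's vehicle-arm and drug-arm fold-change classes for viability or glycolysis; which class combinations qualify is not given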
Calls: active = enhances vemurafenib effect; inactive = no enhancement seen

How did the screen score SLC27A3?
cell gain with vemurafenib: 0.95; lactate per cell with vemurafenib: 0.94; Outcome: inactive

Which result is listed for IHH (Indian hedgehog signaling molecule)?
cell gain with vemurafenib: 1.18; lactate per cell with vemurafenib: 0.77; Outcome: inactive

Which result is listed for CCDC184 (coiled-coil domain containing 184)?
cell gain with vemurafenib: 0.71; lactate per cell with vemurafenib: 1.31; Outcome: inactive

With CEP43 (centrosomal protein 43), what does the deposit list?
cell gain with vemurafenib: 0.73; lactate per cell with vemurafenib: 0.64; Outcome: inactive

Which result is listed for NLRX1 (NLR family member X1)?
cell gain with vemurafenib: 0.55; lactate per cell with vemurafenib: 1.23; Outcome: inactive

With DPY19L4 (dpy-19 like 4), what was measured?
cell gain with vemurafenib: 0.61; lactate per cell with vemurafenib: 1.62; Outcome: inactive

For HAPLN4 (hyaluronan and proteoglycan link protein 4), what was measured?
cell gain with vemurafenib: 0.92; lactate per cell with vemurafenib: 1.58; Outcome: inactive

What is on record for FOSB (FosB proto-oncogene, AP-1 transcription factor subunit)?
cell gain with vemurafenib: 0.52; lactate per cell with vemurafenib: 0.87; Outcome: inactive

For HYAL4 (hyaluronidase 4), what was measured?
cell gain with vemurafenib: -0.1; lactate per cell with vemurafenib: 1.93; Outcome: inactive

With EXTL1 (exostosin like glycosyltransferase 1), how do the results read?
cell gain with vemurafenib: 0.63; lactate per cell with vemurafenib: 0.97; Outcome: inactive

For FHL5 (four and a half LIM domains 5), what does the deposit list?
cell gain with vemurafenib: 0.64; lactate per cell with vemurafenib: 0.67; Outcome: inactive

Which result is listed for SPINK9 (serine peptidase inhibitor Kazal type 9)?
cell gain with vemurafenib: 0.83; lactate per cell with vemurafenib: 1; Outcome: inactive

With TMEM243 (transmembrane protein 243), what does the deposit list?
cell gain with vemurafenib: 1.04; lactate per cell with vemurafenib: 0.6; Outcome: inactive

What is on record for TP53BP2 (tumor protein p53 binding protein 2)?
cell gain with vemurafenib: 0.29; lactate per cell with vemurafenib: 0.22; Outcome: inactive

What is on record for ABCA12 (ATP binding cassette subfamily A member 12)?
cell gain with vemurafenib: 0.75; lactate per cell with vemurafenib: 0.43; Outcome: inactive

With SERPINB13 (serpin family B member 13), what does the deposit list?
cell gain with vemurafenib: 0.66; lactate per cell with vemurafenib: 0.48; Outcome: active

For CYP19A1 (cytochrome P450 family 19 subfamily A member 1), what does the deposit list?
cell gain with vemurafenib: 0.53; lactate per cell with vemurafenib: 1.5; Outcome: inactive

Which result is listed for ZKSCAN8 (zinc finger with KRAB and SCAN domains 8)?
cell gain with vemurafenib: 0.47; lactate per cell with vemurafenib: 1.11; Outcome: inactive

What is on record for TRIM44 (TRIM family member 44)?
cell gain with vemurafenib: 0.75; lactate per cell with vemurafenib: 0.93; Outcome: inactive

How did the screen score MIB2 (MIB E3 ubiquitin protein ligase 2)?
cell gain with vemurafenib: 1; lactate per cell with vemurafenib: 0.78; Outcome: inactive

What is on record for ZNF671 (zinc finger protein 671)?
cell gain with vemurafenib: 0.5; lactate per cell with vemurafenib: 1.14; Outcome: inactive

Which result is listed for RANBP3 (RAN binding protein 3)?
cell gain with vemurafenib: 0.3; lactate per cell with vemurafenib: 0.57; Outcome: inactive

What is on record for NFIB (nuclear factor I B)?
cell gain with vemurafenib: 0.69; lactate per cell with vemurafenib: 0.43; Outcome: inactive

How did the screen score UGT2A3 (UDP glucuronosyltransferase family 2 member A3)?
cell gain with vemurafenib: 0.56; lactate per cell with vemurafenib: 0.9; Outcome: inactive

With HECA (HECA ribonucleoprotein granule regulator), what was measured?
cell gain with vemurafenib: 1.21; lactate per cell with vemurafenib: 0.52; Outcome: inactive

For BCL2L12 (BCL2 like 12), how do the results read?
cell gain with vemurafenib: 0.76; lactate per cell with vemurafenib: 1.25; Outcome: inactive

For FOXN4 (forkhead box N4), what was measured?
cell gain with vemurafenib: 0.81; lactate per cell with vemurafenib: 1.01; Outcome: inactive

What did the screen give for KDM7A (lysine demethylase 7A)?
cell gain with vemurafenib: 0.97; lactate per cell with vemurafenib: 0.75; Outcome: inactive

What did the screen give for SEMA6A (semaphorin 6A)?
cell gain with vemurafenib: 0.66; lactate per cell with vemurafenib: 0.64; Outcome: inactive

Which result is listed for ZIM3 (zinc finger imprinted 3)?
cell gain with vemurafenib: 0.47; lactate per cell with vemurafenib: 2.31; Outcome: inactive

What is on record for MED8 (mediator complex subunit 8)?
cell gain with vemurafenib: 0.34; lactate per cell with vemurafenib: 0.74; Outcome: inactive

Which result is listed for TPSAB1 (tryptase alpha/beta 1)?
cell gain with vemurafenib: 1.06; lactate per cell with vemurafenib: 1; Outcome: inactive

What did the screen give for IFI30 (IFI30 lysosomal thiol reductase)?
cell gain with vemurafenib: 0.89; lactate per cell with vemurafenib: 0.72; Outcome: inactive

For SPMIP5 (sperm microtubule inner protein 5), what was measured?
cell gain with vemurafenib: 0.78; lactate per cell with vemurafenib: 0.66; Outcome: inactive

With LDHD (lactate dehydrogenase D), how do the results read?
cell gain with vemurafenib: 0.82; lactate per cell with vemurafenib: 0.7; Outcome: inactive

For DNAJC3 (DnaJ heat shock protein family (Hsp40) member C3), what does the deposit list?
cell gain with vemurafenib: 0.51; lactate per cell with vemurafenib: 0.86; Outcome: inactive

What did the screen give for GNB3 (G protein subunit beta 3)?
cell gain with vemurafenib: 0.26; lactate per cell with vemurafenib: 1.73; Outcome: inactive

How did the screen score DSTYK (dual serine/threonine and tyrosine protein kinase)?
cell gain with vemurafenib: 0.72; lactate per cell with vemurafenib: 0.53; Outcome: inactive

For NDUFB3 (NADH:ubiquinone oxidoreductase subunit B3), what was measured?
cell gain with vemurafenib: 0.43; lactate per cell with vemurafenib: 1.44; Outcome: inactive

Which result is listed for PKM (pyruvate kinase M1/2)?
cell gain with vemurafenib: 0.8; lactate per cell with vemurafenib: 0.91; Outcome: inactive
